Hit rate of the full screen: of about 96,000 compounds, about 140 (0.15%) were called active. This list was built around the results that the source calls inconclusive (neither active nor inactive); the mix of calls is not that of the screen.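 How the source made its calls: active means mean replicate inhibition above about 25%, with at least 55% of replicates also reaching it (limit read from the data, passing the limit was not always enough); inconclusive means only one of those two conditions met; inactive means neither condition met.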
target: Lysine-specific demethylase 4C (Homo sapiens) (UniProt Q9H3R0); assay: inhibitors of GASC-1 (KDM4C) histone demethylase, primary screen, biochemical, single concentration HTS (AID 720574); conditions: GST-KDM4C 2-372, H3K9me3 peptide, LANCE TR-FRET; at 12.5 µM; active compounds read high
Procedure, shortened: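 Test system: N-terminal GST-fused human GASC-1 (KDM4C) fragment, residues 2-372; quantity: GASC-1 enzyme at 10 nM final in reaction; dosing: single dose; schedule: 30 min demethylation and 1 h detection at room temperature; signal: LANCE TR-FRET, excitation 340 nm, emissions 618 and 671 nm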

Chains of the proteins cited; added tags and fusions are not shown. Residues count along the entry.
UniProt Q9H3R0, 2-372 limits assumed: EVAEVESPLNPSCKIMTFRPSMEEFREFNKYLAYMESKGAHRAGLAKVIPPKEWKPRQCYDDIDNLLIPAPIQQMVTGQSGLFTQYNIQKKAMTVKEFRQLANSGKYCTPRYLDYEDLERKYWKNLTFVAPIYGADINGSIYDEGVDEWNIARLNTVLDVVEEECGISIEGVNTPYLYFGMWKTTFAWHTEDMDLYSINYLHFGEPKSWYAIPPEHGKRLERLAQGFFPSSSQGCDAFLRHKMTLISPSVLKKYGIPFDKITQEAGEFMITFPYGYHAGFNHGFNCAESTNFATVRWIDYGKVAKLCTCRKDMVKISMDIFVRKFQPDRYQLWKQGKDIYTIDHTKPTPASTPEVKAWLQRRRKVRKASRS

Compound	inhibition
NCC[C@H]1CC[C@@H](NC(=O)Nc2ccc(F)cc2)[C@H](CO)O1	inactive: 0.58%
COc1ccc(CN(C)C[C@@H]2OCCCC[C@@H](C)Oc3ccc(NC(=O)NC(C)C)cc3C(=O)N([C@H](C)CO)C[C@H]2C)cc1	inconclusive: 25.6%
CO[C@@H]1CN(C)C(=O)c2cc(NS(=O)(=O)c3cccc(F)c3)ccc2OC[C@H](C)N(Cc2cc(F)ccc2F)C[C@@H]1C	inactive: -1.75%
O=C(C[C@H]1CC[C@@H](NC(=O)Nc2ccc3c(c2)OCO3)[C@H](CO)O1)NCc1ccc(Cl)cc1	inconclusive: 43.4%
CN(C)c1ccc2c(c1)[C@H]1C[C@H](CC(=O)NCc3ccccc3)O[C@H](CO)[C@H]1O2	active: 44.4%
C[C@@H]1CN([C@@H](C)CO)S(=O)(=O)c2ccc(C#Cc3ccccc3)cc2O[C@H]1CN(C)C(=O)Nc1ccc2c(c1)OCO2	inactive: -2.25%
C[C@@H]1CCCCO[C@@H](CN(C)C(=O)C2CCCCC2)[C@H](C)CN([C@@H](C)CO)C(=O)c2cc(NC(=O)c3ccccc3)ccc2O1	inactive: 0.584%
COCCNC(=O)C[C@@H]1C[C@H]2c3cc(N(C)C)ccc3O[C@H]2[C@@H](CO)O1	inconclusive: 29.1%
Cc1ccc(S(=O)(=O)Nc2ccc3c(c2)C(=O)N([C@@H](C)CO)C[C@@H](C)[C@H](CN(C)Cc2ccc4c(c2)OCO4)O3)cc1	inactive: -0.577%
C[C@@H]1CN([C@H](C)CO)C(=O)c2cc(NS(=O)(=O)c3cn(C)cn3)ccc2O[C@@H]1CN(C)S(=O)(=O)c1ccccc1	inconclusive: 34.1%
Cn1cnc(S(=O)(=O)N[C@@H]2CC[C@H](CC(=O)N3CCN(c4ccccc4)CC3)O[C@H]2CO)c1	inconclusive: 28.4%
COc1ccc(S(=O)(=O)N(C)C[C@@H]2OCCCC[C@H](C)Oc3ccc(NC(=O)Nc4ccccc4)cc3C(=O)N([C@H](C)CO)C[C@@H]2C)cc1	inactive: -2.52%
N#Cc1ccc(-c2ccc3c(c2)[C@H]2[C@H](CCN2C(=O)C2CC2)[C@@H](CO)N3)cc1	inconclusive: 40.5%
COc1ccc(S(=O)(=O)Nc2cccc3c2O[C@@H](CN(C)Cc2ccc(C(=O)O)cc2)[C@@H](C)CN([C@H](C)CO)C3=O)cc1	inactive: -0.202%
COc1ccc(C#Cc2ccc3c(c2)[C@@H]2[C@@H](CCN2S(=O)(=O)c2ccccc2F)[C@@H](CO)N3C)cc1	active: 47.5%
C[C@@H]1CN([C@@H](C)CO)C(=O)Cc2cc(NC(=O)Cn3cnnn3)ccc2O[C@H]1CN(C)Cc1ccc(C(F)(F)F)cc1	inconclusive: 37.2%
C[C@@H]1CN([C@@H](C)CO)S(=O)(=O)c2ccc(C#CC3CC3)cc2O[C@@H]1CN(C)Cc1ccc(F)cc1	inconclusive: 25.6%
COc1ccc(NC(=O)N(C)C[C@H]2Oc3ccc(NC(=O)Nc4ccccc4)cc3CC(=O)N([C@H](C)CO)C[C@@H]2C)cc1	active: 42.3%
Cc1noc(C)c1S(=O)(=O)Nc1ccc2c(c1)CC(=O)N([C@H](C)CO)C[C@H](C)[C@H](CN(C)C(=O)NC(C)C)O2	inactive: -0.483%
O=C(c1ccncc1)N1CC(=O)N2[C@@H](CO)[C@@H](c3ccc(-c4ccccc4)cc3)[C@@H]2C1	inconclusive: 25.7%

Compound	inhibition
COc1ccc2c3c(n(C)c2c1)[C@@H](CO)N(C(C)=O)CC31CCN(C(=O)C2CC2)CC1	inactive: -0.393%
COCC(=O)Nc1ccc2c(c1)OC[C@@H](C)N(C(=O)COC)C[C@@H](C)[C@@H](OC)CN(C)C2=O	inconclusive: 32%
CN1C(=O)c2cc(NC(=O)Cc3ccccc3)ccc2OC[C@H]2O[C@@H](CC(=O)NCC3CC3)CC[C@@H]21	inconclusive: 26.4%
COCC(=O)Nc1ccc2c(c1)OC[C@H](C)N(Cc1cc(F)ccc1F)C[C@@H](C)[C@@H](OC)CN(C)C2=O	inconclusive: 40.4%
COc1ccc(S(=O)(=O)Nc2cccc3c2O[C@H](CN(C)Cc2ccc(-c4ccccc4)cc2)[C@@H](C)CN([C@@H](C)CO)C3=O)cc1	inconclusive: 32.1%
Cc1ccc(S(=O)(=O)Nc2ccc3c(c2)C(=O)N([C@@H](C)CO)C[C@H](C)[C@@H](CN(C)CC2CC2)OCCCC[C@H](C)O3)cc1	inactive: -0.724%
CCCC#Cc1ccc2c(c1)O[C@@H](CN(C)S(C)(=O)=O)[C@@H](C)CN([C@H](C)CO)S2(=O)=O	active: 41.2%
CO[C@@H]1CN(C)C(=O)c2ccc(NC(=O)C3CCC3)cc2OC[C@H](C)N(Cc2ccncc2)C[C@@H]1C	inconclusive: 26.3%
O=C(C[C@@H]1CC[C@H](NC(=O)Nc2ccccc2F)[C@@H](CO)O1)NCc1ccccc1	inconclusive: 33.3%
C[C@H]1CN([C@@H](C)CO)S(=O)(=O)c2ccc(C#Cc3ccccn3)cc2O[C@H]1CN(C)CC1CC1	inactive: -1.23%
CO[C@@H]1CN(C)C(=O)c2cc(NC(=O)Nc3cc(F)ccc3F)ccc2OC[C@H](C)N(C(=O)c2ccccn2)C[C@H]1C	inconclusive: 42.3%
COc1ccc(S(=O)(=O)Nc2ccc3c(c2)CC(=O)N([C@H](C)CO)C[C@H](C)[C@@H](CN(C)Cc2ccc(C(=O)O)cc2)O3)cc1	inactive: 15.4%
CCC(=O)N1C[C@@H](C)[C@@H](OC)CN(C)C(=O)c2cc(NC(=O)c3cnccn3)ccc2OC[C@H]1C	inconclusive: 34.3%
O=C(C[C@@H]1CC[C@H]2[C@@H](COC[C@@H](O)CN2Cc2ccncc2)O1)NCc1ccncc1	inconclusive: 25.3%
Cc1ccccc1S(=O)(=O)N1CCCCN2[C@@H](CO)[C@H](c3ccc(-c4cccnc4)cc3)[C@@H]2C1	inconclusive: 34.6%
O=C(Nc1ccccc1F)N[C@H]1CC[C@@H](CCNC(=O)C2CCCC2)O[C@H]1CO	inconclusive: 39.9%
Cc1noc(C)c1NC(=O)N(C)C[C@H]1Oc2ccc(N(C)C)cc2C(=O)N([C@@H](C)CO)C[C@H]1C	inconclusive: 27%
CC(=O)N(C)C[C@H]1Oc2cc(C#CCC3CCCC3)ccc2S(=O)(=O)N([C@H](C)CO)C[C@@H]1C	inconclusive: 42%
COCc1cn(CC[C@@H]2CC[C@H](NC(=O)CCN3CCCCC3)[C@@H](CO)O2)nn1	active: 67.1%
Cc1noc(C)c1S(=O)(=O)N(C)C[C@@H]1Oc2ccc(NS(=O)(=O)c3ccc(Cl)cc3)cc2C(=O)N([C@@H](C)CO)C[C@@H]1C	inconclusive: 43.1%

Fetched one by one from the list above (2):
Compound	inhibition
CC(=O)N(C)C[C@H]1Oc2cc(C#CCC3CCCC3)ccc2S(=O)(=O)N([C@H](C)CO)C[C@@H]1C	inconclusive: 42%
C[C@@H]1CN([C@@H](C)CO)S(=O)(=O)c2ccc(C#Cc3ccccc3)cc2O[C@H]1CN(C)C(=O)Nc1ccc2c(c1)OCO2	inactive: -2.25%

The results go on:

Compound	inhibition
O=C(N[C@@H]1CC[C@H](CCNS(=O)(=O)c2ccccc2Cl)O[C@@H]1CO)c1ccc(F)cc1	inconclusive: 31.9%
CN(C)c1ccc2c(c1)[C@@H]1C[C@@H](CC(=O)NCC3CC3)O[C@@H](CO)[C@@H]1O2	active: 31.9%
COCCNC(=O)C[C@@H]1C[C@@H]2c3cc(N(C)C)ccc3O[C@@H]2[C@H](CO)O1	inconclusive: 33.2%
CC(C)NC(=O)N[C@H]1C=C[C@H](CC(=O)O)O[C@@H]1CO	inactive: -0.553%
C/C=C/c1ccc2c(c1)O[C@H](CN(C)C(=O)C1CCCCC1)[C@@H](C)CN([C@@H](C)CO)S2(=O)=O	inconclusive: 26.8%
COc1cccc(-c2ccc([C@H]3[C@@H](CO)N4CCCCN(S(=O)(=O)c5cccs5)C[C@H]34)cc2)c1	inactive: -0.812%
C[C@H]1CN([C@@H](C)CO)C(=O)c2cccc(NC(=O)c3nc4ccccc4s3)c2O[C@H]1CN(C)Cc1ccc(Cl)c(Cl)c1	inactive: -4.12%
COCC(=O)N(C)C[C@@H]1Oc2ncc(C#Cc3cccnc3)cc2C(=O)N([C@@H](C)CO)C[C@H]1C	active: 37.4%
Cc1ccc(-c2cnc3c(c2)C(=O)N([C@@H](C)CO)C[C@@H](C)[C@@H](CN(C)Cc2ccccc2F)O3)cc1	inconclusive: 27.2%
C[C@@H]1CN([C@H](C)CO)C(=O)c2c(c3ccccc3n2C)-c2ccccc2CO[C@@H]1CN(C)Cc1ccc(Cl)c(Cl)c1	inactive: -2.15%
O=C1CN(Cc2ccc(F)cc2)C[C@@H]2[C@H](c3ccc(Br)cc3)[C@H](CO)N12	inconclusive: 28.3%
C[C@@H]1CN([C@@H](C)CO)C(=O)Cc2cc(NC(=O)Nc3ccc(F)cc3)ccc2O[C@H]1CN(C)CC1CCCCC1	inconclusive: 26.3%
CN(C)c1ccc2c(c1)[C@@H]1C[C@@H](CC(=O)NCc3ccc(Cl)cc3)O[C@H](CO)[C@@H]1O2	inconclusive: 26%
COc1ccccc1-c1cn(CC[C@H]2CC[C@H](NC(=O)NC(C)C)[C@H](CO)O2)nn1	inconclusive: 25%
CO[C@H]1CN(C)C(=O)c2ccc(NS(C)(=O)=O)cc2OC[C@@H](C)N(Cc2nccs2)C[C@@H]1C	inconclusive: 37.6%
CO[C@H]1CN(C)C(=O)c2ccc(NS(=O)(=O)c3ccc(Cl)cc3)cc2OC[C@@H](C)NC[C@H]1C	active: 79.9%
CCC(=O)Nc1ccc2c(c1)OC[C@H](C)N(C(=O)C1CC1)C[C@H](C)[C@H](OC)CN(C)C2=O	inconclusive: 27.6%
COC(=O)[C@@H]1[C@@H](CO)[C@@H]2Cn3c(ccc(-c4ccc(OC)cc4)c3=O)[C@@H]2N1C	inconclusive: 25.8%
CC(C)C#Cc1ccc2c(c1)O[C@@H](CN(C)C(=O)CN(C)C)[C@@H](C)CN([C@H](C)CO)S2(=O)=O	inconclusive: 26.8%
COCCNC(=O)C[C@@H]1C[C@H]2c3cc(N(C)C)ccc3O[C@H]2[C@H](CO)O1	active: 38.8%

In the list so far, 13 contain fluorine:
Compound	inhibition
NCC[C@H]1CC[C@@H](NC(=O)Nc2ccc(F)cc2)[C@H](CO)O1	inactive: 0.58%
CO[C@@H]1CN(C)C(=O)c2cc(NS(=O)(=O)c3cccc(F)c3)ccc2OC[C@H](C)N(Cc2cc(F)ccc2F)C[C@@H]1C	inactive: -1.75%
COc1ccc(C#Cc2ccc3c(c2)[C@@H]2[C@@H](CCN2S(=O)(=O)c2ccccc2F)[C@@H](CO)N3C)cc1	active: 47.5%
C[C@@H]1CN([C@@H](C)CO)C(=O)Cc2cc(NC(=O)Cn3cnnn3)ccc2O[C@H]1CN(C)Cc1ccc(C(F)(F)F)cc1	inconclusive: 37.2%
C[C@@H]1CN([C@@H](C)CO)S(=O)(=O)c2ccc(C#CC3CC3)cc2O[C@@H]1CN(C)Cc1ccc(F)cc1	inconclusive: 25.6%
COCC(=O)Nc1ccc2c(c1)OC[C@H](C)N(Cc1cc(F)ccc1F)C[C@@H](C)[C@@H](OC)CN(C)C2=O	inconclusive: 40.4%
O=C(C[C@@H]1CC[C@H](NC(=O)Nc2ccccc2F)[C@@H](CO)O1)NCc1ccccc1	inconclusive: 33.3%
CO[C@@H]1CN(C)C(=O)c2cc(NC(=O)Nc3cc(F)ccc3F)ccc2OC[C@H](C)N(C(=O)c2ccccn2)C[C@H]1C	inconclusive: 42.3%
O=C(Nc1ccccc1F)N[C@H]1CC[C@@H](CCNC(=O)C2CCCC2)O[C@H]1CO	inconclusive: 39.9%
O=C(N[C@@H]1CC[C@H](CCNS(=O)(=O)c2ccccc2Cl)O[C@@H]1CO)c1ccc(F)cc1	inconclusive: 31.9%
Cc1ccc(-c2cnc3c(c2)C(=O)N([C@@H](C)CO)C[C@@H](C)[C@@H](CN(C)Cc2ccccc2F)O3)cc1	inconclusive: 27.2%
O=C1CN(Cc2ccc(F)cc2)C[C@@H]2[C@H](c3ccc(Br)cc3)[C@H](CO)N12	inconclusive: 28.3%
C[C@@H]1CN([C@@H](C)CO)C(=O)Cc2cc(NC(=O)Nc3ccc(F)cc3)ccc2O[C@H]1CN(C)CC1CCCCC1	inconclusive: 26.3%

From PubChem BioAssay AID720574 (Broad Institute, 2013)
